Source: the supplement of paper PMC10849652
Some of the results follow.

Protein sequences, listed by entry. Tags and fused reporters are not part of them. Lines headed by an entry give the natural chain unless they say otherwise; changes in a name come on top.
UniProt Q6P4F2: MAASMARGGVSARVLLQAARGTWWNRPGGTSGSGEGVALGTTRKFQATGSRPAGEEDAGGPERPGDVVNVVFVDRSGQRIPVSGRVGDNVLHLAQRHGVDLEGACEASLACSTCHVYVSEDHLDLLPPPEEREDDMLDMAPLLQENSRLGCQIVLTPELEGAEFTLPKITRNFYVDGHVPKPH
UniProt Q9NRD1: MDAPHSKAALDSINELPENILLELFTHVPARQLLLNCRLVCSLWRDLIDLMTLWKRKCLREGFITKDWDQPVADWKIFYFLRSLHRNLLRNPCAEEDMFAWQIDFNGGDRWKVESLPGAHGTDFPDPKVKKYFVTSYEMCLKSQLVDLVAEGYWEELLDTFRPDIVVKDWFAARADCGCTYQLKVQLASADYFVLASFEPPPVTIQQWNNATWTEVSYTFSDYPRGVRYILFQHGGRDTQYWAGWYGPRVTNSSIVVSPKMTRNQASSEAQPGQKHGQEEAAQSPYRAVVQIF
UniProt Q9UBU6: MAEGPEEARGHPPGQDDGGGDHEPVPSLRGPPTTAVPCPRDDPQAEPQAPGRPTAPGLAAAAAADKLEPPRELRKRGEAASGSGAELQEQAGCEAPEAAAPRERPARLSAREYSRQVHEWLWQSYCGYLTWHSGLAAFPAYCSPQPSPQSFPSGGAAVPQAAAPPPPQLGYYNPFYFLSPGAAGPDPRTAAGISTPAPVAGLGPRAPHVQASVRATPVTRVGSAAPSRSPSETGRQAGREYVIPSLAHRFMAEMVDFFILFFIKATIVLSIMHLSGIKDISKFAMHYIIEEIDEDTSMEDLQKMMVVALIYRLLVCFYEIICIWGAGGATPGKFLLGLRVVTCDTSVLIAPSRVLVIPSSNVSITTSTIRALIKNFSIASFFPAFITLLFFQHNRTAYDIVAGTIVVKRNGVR
UniProt Q9BXW9: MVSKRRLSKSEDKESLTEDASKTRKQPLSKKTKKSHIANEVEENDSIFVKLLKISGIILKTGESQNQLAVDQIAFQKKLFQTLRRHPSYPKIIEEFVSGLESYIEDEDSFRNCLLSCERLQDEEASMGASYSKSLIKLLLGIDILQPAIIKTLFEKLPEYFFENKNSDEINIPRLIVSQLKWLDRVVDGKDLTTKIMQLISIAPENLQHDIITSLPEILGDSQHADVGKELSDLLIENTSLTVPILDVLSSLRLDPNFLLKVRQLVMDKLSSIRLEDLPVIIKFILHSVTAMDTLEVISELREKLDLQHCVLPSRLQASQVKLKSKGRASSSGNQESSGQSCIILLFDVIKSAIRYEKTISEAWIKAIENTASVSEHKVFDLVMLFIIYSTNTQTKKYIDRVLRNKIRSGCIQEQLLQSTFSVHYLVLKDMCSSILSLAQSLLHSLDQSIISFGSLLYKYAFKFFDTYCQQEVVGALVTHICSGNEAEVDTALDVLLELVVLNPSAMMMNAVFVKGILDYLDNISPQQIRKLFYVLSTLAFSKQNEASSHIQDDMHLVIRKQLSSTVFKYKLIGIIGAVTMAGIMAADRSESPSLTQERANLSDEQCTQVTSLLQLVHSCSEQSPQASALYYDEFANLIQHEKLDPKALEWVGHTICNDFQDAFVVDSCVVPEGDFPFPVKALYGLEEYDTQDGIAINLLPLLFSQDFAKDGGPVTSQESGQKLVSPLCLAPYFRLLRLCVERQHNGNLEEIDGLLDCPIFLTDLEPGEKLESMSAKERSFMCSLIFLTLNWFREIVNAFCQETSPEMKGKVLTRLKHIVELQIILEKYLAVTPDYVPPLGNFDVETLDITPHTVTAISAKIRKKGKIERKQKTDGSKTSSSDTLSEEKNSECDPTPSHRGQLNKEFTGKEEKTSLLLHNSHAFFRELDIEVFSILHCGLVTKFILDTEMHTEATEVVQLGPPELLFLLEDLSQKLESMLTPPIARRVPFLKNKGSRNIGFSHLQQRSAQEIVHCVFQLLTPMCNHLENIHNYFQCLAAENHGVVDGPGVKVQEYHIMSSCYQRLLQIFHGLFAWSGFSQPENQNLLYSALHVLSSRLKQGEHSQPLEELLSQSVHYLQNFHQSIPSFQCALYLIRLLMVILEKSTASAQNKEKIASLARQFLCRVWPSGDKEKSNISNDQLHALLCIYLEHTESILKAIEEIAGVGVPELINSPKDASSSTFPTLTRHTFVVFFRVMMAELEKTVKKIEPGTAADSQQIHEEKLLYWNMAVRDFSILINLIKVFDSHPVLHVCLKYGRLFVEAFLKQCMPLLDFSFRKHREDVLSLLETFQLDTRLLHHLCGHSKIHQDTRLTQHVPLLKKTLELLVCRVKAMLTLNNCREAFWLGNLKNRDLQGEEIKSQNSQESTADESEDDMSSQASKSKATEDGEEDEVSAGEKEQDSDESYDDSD
UniProt Q9Y680: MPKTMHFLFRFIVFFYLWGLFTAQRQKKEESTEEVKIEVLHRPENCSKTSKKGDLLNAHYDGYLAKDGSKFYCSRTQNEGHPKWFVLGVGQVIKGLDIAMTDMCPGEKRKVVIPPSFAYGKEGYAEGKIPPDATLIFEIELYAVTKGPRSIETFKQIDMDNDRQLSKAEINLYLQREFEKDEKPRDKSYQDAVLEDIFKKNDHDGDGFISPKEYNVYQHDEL
UniProt Q02790: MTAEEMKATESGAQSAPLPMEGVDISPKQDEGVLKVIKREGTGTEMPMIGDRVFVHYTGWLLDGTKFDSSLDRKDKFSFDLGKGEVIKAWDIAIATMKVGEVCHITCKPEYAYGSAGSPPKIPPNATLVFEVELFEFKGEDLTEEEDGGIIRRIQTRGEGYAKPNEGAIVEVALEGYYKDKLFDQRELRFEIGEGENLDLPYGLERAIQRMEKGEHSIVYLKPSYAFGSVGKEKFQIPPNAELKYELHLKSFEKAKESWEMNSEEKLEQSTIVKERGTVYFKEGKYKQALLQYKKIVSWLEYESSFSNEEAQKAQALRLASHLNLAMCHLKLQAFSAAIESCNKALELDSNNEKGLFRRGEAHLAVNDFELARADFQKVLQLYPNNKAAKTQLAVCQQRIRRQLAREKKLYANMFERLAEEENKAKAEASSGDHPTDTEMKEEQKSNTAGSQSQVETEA
UniProt Q9UK99: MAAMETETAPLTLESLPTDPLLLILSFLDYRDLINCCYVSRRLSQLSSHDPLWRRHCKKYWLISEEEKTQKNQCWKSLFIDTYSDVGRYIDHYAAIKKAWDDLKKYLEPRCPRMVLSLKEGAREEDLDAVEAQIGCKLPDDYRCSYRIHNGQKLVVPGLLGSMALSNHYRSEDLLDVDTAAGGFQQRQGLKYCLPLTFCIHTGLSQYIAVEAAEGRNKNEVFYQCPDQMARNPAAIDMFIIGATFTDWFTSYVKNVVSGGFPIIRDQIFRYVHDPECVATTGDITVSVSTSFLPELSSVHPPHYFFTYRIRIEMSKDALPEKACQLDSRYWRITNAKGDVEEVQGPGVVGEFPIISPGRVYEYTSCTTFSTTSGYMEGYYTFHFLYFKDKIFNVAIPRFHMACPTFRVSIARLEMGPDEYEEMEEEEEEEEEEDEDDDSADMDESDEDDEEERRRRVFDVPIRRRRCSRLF
UniProt P37268: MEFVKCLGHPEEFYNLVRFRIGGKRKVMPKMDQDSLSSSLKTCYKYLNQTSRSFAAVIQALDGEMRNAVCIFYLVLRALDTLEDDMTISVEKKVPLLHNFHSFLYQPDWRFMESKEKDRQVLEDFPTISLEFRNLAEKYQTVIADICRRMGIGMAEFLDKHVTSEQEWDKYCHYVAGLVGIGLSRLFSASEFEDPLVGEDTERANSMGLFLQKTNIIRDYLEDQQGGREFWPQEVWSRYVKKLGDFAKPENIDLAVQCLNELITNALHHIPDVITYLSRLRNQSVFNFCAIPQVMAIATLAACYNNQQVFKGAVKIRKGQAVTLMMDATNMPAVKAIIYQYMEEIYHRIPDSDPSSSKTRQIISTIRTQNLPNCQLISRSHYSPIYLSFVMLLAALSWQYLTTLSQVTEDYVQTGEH
UniProt Q5HYJ3: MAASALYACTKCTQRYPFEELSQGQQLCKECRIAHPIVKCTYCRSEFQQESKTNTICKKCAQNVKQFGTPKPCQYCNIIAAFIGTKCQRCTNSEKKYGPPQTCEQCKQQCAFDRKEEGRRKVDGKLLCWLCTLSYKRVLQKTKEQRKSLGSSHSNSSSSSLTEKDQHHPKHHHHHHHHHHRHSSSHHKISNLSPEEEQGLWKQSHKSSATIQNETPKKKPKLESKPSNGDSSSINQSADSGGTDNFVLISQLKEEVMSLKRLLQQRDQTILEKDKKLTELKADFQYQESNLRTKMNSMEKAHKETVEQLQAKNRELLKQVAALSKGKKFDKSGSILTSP
UniProt Q9NXK8: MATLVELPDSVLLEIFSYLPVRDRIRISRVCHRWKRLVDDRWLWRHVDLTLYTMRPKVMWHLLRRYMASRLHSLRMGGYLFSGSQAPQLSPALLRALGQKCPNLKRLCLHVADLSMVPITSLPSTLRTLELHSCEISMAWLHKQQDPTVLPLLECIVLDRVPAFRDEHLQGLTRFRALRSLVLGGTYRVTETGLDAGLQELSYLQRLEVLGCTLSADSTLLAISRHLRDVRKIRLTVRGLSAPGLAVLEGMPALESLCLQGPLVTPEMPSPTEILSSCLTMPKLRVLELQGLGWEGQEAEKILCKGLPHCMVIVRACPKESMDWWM
UniProt Q9UKT4: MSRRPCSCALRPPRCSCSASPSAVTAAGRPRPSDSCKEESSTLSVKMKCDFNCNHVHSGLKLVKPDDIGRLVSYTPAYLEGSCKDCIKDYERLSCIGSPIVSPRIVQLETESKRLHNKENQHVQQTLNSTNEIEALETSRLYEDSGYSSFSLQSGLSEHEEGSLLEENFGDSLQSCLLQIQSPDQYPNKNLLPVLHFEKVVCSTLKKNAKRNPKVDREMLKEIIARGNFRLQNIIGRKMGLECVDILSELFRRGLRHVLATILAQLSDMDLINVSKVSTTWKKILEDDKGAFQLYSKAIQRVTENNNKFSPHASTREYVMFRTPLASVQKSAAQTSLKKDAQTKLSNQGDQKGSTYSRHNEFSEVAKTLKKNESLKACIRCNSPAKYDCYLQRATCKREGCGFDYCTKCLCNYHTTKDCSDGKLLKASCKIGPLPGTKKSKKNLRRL
UniProt Q92913: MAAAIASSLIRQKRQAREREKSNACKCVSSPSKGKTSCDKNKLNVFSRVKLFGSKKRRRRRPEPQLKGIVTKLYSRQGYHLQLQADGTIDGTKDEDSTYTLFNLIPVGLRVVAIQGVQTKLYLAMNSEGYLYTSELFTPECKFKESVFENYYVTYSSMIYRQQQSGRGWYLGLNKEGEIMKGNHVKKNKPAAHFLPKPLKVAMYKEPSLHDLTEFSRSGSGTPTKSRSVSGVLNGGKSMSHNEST
UniProt Q96HJ9: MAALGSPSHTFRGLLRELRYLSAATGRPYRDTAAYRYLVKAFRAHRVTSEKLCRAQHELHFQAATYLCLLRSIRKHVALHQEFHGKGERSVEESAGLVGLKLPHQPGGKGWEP
UniProt Q9H4H8: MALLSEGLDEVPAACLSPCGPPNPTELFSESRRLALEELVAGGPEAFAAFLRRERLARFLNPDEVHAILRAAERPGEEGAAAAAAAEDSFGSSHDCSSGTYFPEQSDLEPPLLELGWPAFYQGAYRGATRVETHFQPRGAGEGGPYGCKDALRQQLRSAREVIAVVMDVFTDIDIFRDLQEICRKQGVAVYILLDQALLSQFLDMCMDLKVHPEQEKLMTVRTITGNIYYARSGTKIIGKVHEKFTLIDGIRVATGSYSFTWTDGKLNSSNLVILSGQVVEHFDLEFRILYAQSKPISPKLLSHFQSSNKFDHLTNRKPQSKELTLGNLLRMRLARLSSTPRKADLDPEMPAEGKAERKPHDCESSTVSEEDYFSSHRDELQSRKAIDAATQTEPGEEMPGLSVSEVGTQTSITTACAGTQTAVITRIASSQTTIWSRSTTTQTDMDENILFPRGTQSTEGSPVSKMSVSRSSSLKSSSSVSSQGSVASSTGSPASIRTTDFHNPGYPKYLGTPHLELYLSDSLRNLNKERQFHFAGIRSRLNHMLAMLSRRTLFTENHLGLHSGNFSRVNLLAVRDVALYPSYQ
UniProt Q8NFF5: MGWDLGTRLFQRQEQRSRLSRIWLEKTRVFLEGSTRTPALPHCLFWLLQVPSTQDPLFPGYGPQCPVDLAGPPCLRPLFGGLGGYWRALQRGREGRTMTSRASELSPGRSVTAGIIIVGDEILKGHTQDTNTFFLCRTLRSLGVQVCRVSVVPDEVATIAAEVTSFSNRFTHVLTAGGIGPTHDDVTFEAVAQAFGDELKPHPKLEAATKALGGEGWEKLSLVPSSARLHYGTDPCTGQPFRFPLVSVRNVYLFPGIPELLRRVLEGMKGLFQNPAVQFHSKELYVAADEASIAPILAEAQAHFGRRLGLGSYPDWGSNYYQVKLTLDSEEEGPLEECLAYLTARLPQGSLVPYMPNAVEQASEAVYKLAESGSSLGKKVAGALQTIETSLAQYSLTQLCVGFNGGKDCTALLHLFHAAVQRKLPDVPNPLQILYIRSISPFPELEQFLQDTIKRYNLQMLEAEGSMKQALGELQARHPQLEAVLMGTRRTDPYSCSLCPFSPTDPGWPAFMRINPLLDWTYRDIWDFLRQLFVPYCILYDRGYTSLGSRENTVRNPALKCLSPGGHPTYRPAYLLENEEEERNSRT

Columns and labels:
Experiment in all cases: log2 fold change, soluble protein after heating vs DMSO (PISA); higher = thermal stabilisation; K562 cells, 10 uM, 30 min; active = over 0.2 and 3.5 SD of the protein, either way, in both replicates (recomputed)
bafetinib = compound: Cc1ccc(NC(=O)c2ccc(CN3CC[C@H](N(C)C)C3)c(C(F)(F)F)c2)cc1Nc1nccc(-c2cncnc2)n1 [bafetinib]
Procedure, shortened: (§1)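 Soluble protein was quantified by TMTpro 16plex LC-MS/MS after channel sums were equalised. It was obtained as the supernatant after 21,000xg for 90 min from pooled aliquots of K562 cells (2×10^6 cells/mL, 10 μM compound, 30 min) heated for 3 min across 48°C-58°C and extracted in PBS with 0.5% NP-40 at 4°C. Thermal stability values are relative to control samples and come from duplicates. They are given as log2 fold changes.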

[1] = compound: Cc1cccc(CC(=O)N2CCc3c2ccc(-c2cn(C)c4ncnc(N)c24)c3F)n1
Procedure, shortened: as §1

nilotinib = compound: Cc1cn(-c2cc(NC(=O)c3ccc(C)c(Nc4nccc(-c5cccnc5)n4)c3)cc(C(F)(F)F)c2)cn1 [nilotinib]
Procedure, shortened: as §1

[2] = compound: Cc1nc(Nc2n[nH]c3c2CN(C(=O)N[C@H](CN(C)C)c2ccccc2)C3(C)C)c2sccc2n1
Procedure, shortened: as §1

dasatinib = compound: Cc1nc(Nc2ncc(C(=O)Nc3c(C)cccc3Cl)s2)cc(N2CCN(CCO)CC2)n1 [dasatinib]
Procedure, shortened: as §1

[3] = compound: Cc1ncc(-c2ccnc(Nc3ccc(S(C)(=O)=O)cc3)n2)n1C(C)C
Procedure, shortened: as §1

[4] = compound: Cn1cc(-c2ccc3c(c2)CCN3C(=O)Cc2cccc(C(F)(F)F)c2)c2c(N)ncnc21
Procedure, shortened: as §1

[5] = compound: Cn1cc(-c2ccc3nnc(C(F)(F)c4ccc5ncccc5c4)n3n2)cn1
Procedure, shortened: as §1

tipifarnib = compound: Cn1cncc1[C@@](N)(c1ccc(Cl)cc1)c1ccc2c(c1)c(-c1cccc(Cl)c1)cc(=O)n2C [tipifarnib]
Procedure, shortened: as §1

mubritinib = compound: FC(F)(F)c1ccc(/C=C/c2nc(COc3ccc(CCCCn4ccnn4)cc3)co2)cc1 [mubritinib]
Procedure, shortened: as §1

[6] = compound: NC(=O)Nc1cc(-c2cccc(F)c2)sc1C(=O)N[C@H]1CCCNC1
Procedure, shortened: as §1

[7] = compound: NC(=O)c1cnc(N[C@@H]2CCCC[C@@H]2N)nc1Nc1cccc(-n2nccn2)c1
Procedure, shortened: as §1

[8] = compound: NC1(c2ccc(-c3nc4ccn5c(=O)[nH]nc5c4cc3-c3ccccc3)cc2)CCC1
Procedure, shortened: as §1

[9] = compound: NCC(=O)Nc1ccc(-n2nc(C(F)(F)F)cc2-c2ccc3c(ccc4ccccc43)c2)cc1
Procedure, shortened: as §1

entinostat = compound: Nc1ccccc1NC(=O)c1ccc(CNC(=O)OCc2cccnc2)cc1 [entinostat]
Procedure, shortened: as §1

vorinostat = compound: O=C(CCCCCCC(=O)Nc1ccccc1)NO [vorinostat]
Procedure, shortened: as §1

citarinostat = compound: O=C(CCCCCCNC(=O)c1cnc(N(c2ccccc2)c2ccccc2Cl)nc1)NO [citarinostat]
Procedure, shortened: as §1

silmitasertib = compound: O=C(O)c1ccc2c(c1)nc(Nc1cccc(Cl)c1)c1ccncc12 [silmitasertib]
Procedure, shortened: as §1

[10] = compound: O=C1NC(=O)C(c2cnc3ccccn23)=C1c1cn2c3c(cc(F)cc13)CN(C(=O)N1CCCCC1)CC2
Procedure, shortened: as §1

[11] = compound: c1cc(OCCN2CCCCC2)cc(-c2n[nH]c3ccc(-c4nnc[nH]4)cc23)c1
Procedure, shortened: as §1

Measured: log2 fold change

FDX2 (UniProt Q6P4F2)
inactive: bafetinib -0.028 | [1] -0.033 | nilotinib 0.005 | [2] 0.02 | dasatinib -0.007 | [3] -0.048 | [4] 0.123 | [5] 0.016 | tipifarnib -0.02 | mubritinib 0.02 | [6] 0.033 | [7] -0.007 | [8] -0.045 | [9] 0.076 | entinostat 0.007 | vorinostat -0.116 | citarinostat -0.047 | silmitasertib 0.075 | [10] 0.045 | [11] 0.04

FBXO6 (UniProt Q9NRD1)
inactive: [1] 0.015 | nilotinib -0.118 | [2] -0.004 | dasatinib -0.202 | [3] 0.044 | [4] 0.047 | [5] -0.021 | tipifarnib -0.021 | mubritinib -0.038 | [6] -0.009 | [7] 0.034 | [9] 0.028 | entinostat 0.013 | vorinostat 0.074 | citarinostat 0.075 | silmitasertib 0.012 | [10] -0.017 | [11] 0.026
active: bafetinib 0.442 | [8] 0.366

FAM8A1 (UniProt Q9UBU6)
inactive: bafetinib -0.038 | [1] 0.087 | nilotinib -0.025 | [2] 0.083 | dasatinib 0 | [3] -0.033 | [4] -0.072 | [5] 0.262 | tipifarnib 0.086 | mubritinib 0.075 | [6] 0.006 | [7] -0.058 | [8] 0.07 | [9] -0.067 | entinostat -0.006 | vorinostat 0.033 | citarinostat -0.004 | silmitasertib -0.034 | [10] -0.119 | [11] -0.014

FANCD2 isoform 1 (UniProt Q9BXW9)
inactive: bafetinib -0.06 | [1] -0.014 | nilotinib -0.145 | [2] 0.15 | dasatinib -0.167 | [3] -0.119 | [4] 0.126 | [5] 0.1 | tipifarnib -0.024 | mubritinib 0.052 | [6] 0.087 | [7] -0.189 | [8] -0.304 | [9] -0.034 | entinostat 0.022 | vorinostat 0.187 | citarinostat 0.11 | silmitasertib -0.109 | [10] -0.034 | [11] -0.039

FKBP7 (UniProt Q9Y680)
inactive: bafetinib 0 | [1] -0.04 | nilotinib 0.055 | [2] -0.058 | dasatinib 0.064 | [3] 0 | [4] 0.071 | [5] 0.012 | tipifarnib 0.027 | mubritinib 0.031 | [6] -0.034 | [7] -0.017 | [8] 0.005 | [9] -0.037 | entinostat -0.029 | vorinostat -0.017 | citarinostat -0.02 | silmitasertib 0.079 | [10] 0.008 | [11] -0.097

FKBP4 (UniProt Q02790)
inactive: bafetinib -0.014 | [1] 0.017 | nilotinib -0.05 | [2] -0.011 | dasatinib -0.114 | [3] 0.024 | [4] 0.033 | [5] -0.002 | tipifarnib -0.092 | mubritinib 0.012 | [6] 0.005 | [7] -0.071 | [8] -0.114 | [9] -0.053 | entinostat 0.039 | vorinostat 0.035 | citarinostat 0.072 | silmitasertib 0.01 | [10] -0.02 | [11] -0.029

FBXO3 (UniProt Q9UK99)
inactive: bafetinib -0.052 | [1] 0.06 | nilotinib -0.031 | [2] -0.024 | dasatinib -0.054 | [3] -0.006 | [4] 0.041 | [5] -0.035 | tipifarnib -0.007 | mubritinib 0.055 | [6] -0.034 | [7] -0.013 | [8] -0.202 | [9] -0.013 | entinostat -0.039 | vorinostat 0.011 | citarinostat 0.016 | silmitasertib -0.003 | [10] 0.001 | [11] -0.12

FDFT1 (UniProt P37268)
inactive: bafetinib 0.01 | [1] 0.016 | nilotinib 0.12 | [2] 0.071 | dasatinib 0.023 | [3] -0.019 | [4] 0.111 | [5] -0.047 | tipifarnib 0.089 | mubritinib 0.022 | [6] 0.044 | [7] 0.064 | [8] -0.042 | [9] 0.035 | entinostat -0.008 | vorinostat -0.018 | citarinostat 0.086 | silmitasertib -0.031 | [10] 0.004 | [11] 0.093

FAM76B (UniProt Q5HYJ3)
inactive: bafetinib -0.026 | [1] 0.185 | nilotinib -0.069 | [2] 0.185 | dasatinib 0.017 | [3] -0.02 | [4] -0.026 | [5] 0.035 | tipifarnib 0.017 | mubritinib -0.136 | [6] 0.004 | [7] 0.064 | [8] 0.119 | [9] 0.166 | entinostat -0.082 | vorinostat 0.105 | citarinostat 0.004 | silmitasertib -0.084 | [10] 0.001 | [11] 0.068

FBXL12 (UniProt Q9NXK8)
inactive: bafetinib -0.053 | [1] 0.134 | nilotinib 0.026 | [2] -0.134 | dasatinib -0.119 | [3] -0.114 | [4] 0.039 | [5] 0.023 | tipifarnib 0.022 | mubritinib 0.018 | [6] 0.019 | [7] -0.026 | [8] -0.186 | [9] -0.07 | entinostat -0.011 | vorinostat -0.038 | citarinostat 0.045 | silmitasertib 0.075 | [10] -0.088 | [11] 0.009

Reprinted at random: 2 entries already listed, in no set order.
FAM76B (UniProt Q5HYJ3)
inactive: bafetinib -0.026 | [1] 0.185 | nilotinib -0.069 | [2] 0.185 | dasatinib 0.017 | [3] -0.02 | [4] -0.026 | [5] 0.035 | tipifarnib 0.017 | mubritinib -0.136 | [6] 0.004 | [7] 0.064 | [8] 0.119 | [9] 0.166 | entinostat -0.082 | vorinostat 0.105 | citarinostat 0.004 | silmitasertib -0.084 | [10] 0.001 | [11] 0.068

FDFT1 (UniProt P37268)
inactive: bafetinib 0.01 | [1] 0.016 | nilotinib 0.12 | [2] 0.071 | dasatinib 0.023 | [3] -0.019 | [4] 0.111 | [5] -0.047 | tipifarnib 0.089 | mubritinib 0.022 | [6] 0.044 | [7] 0.064 | [8] -0.042 | [9] 0.035 | entinostat -0.008 | vorinostat -0.018 | citarinostat 0.086 | silmitasertib -0.031 | [10] 0.004 | [11] 0.093

Going on with the list.

FBXO5 (UniProt Q9UKT4)
inactive: bafetinib 0.041 | [1] 0.006 | nilotinib 0.003 | [2] -0.043 | dasatinib -0.042 | [3] -0.003 | [4] 0.047 | [5] -0.134 | tipifarnib -0.003 | mubritinib -0.006 | [6] -0.046 | [7] -0.03 | [8] -0.021 | [9] 0.01 | entinostat -0.007 | vorinostat -0.024 | citarinostat 0.059 | silmitasertib 0.101 | [10] 0.015 | [11] -0.005

FGF13 isoform 3 (UniProt Q92913)
inactive: bafetinib -0.076 | [1] -0.039 | nilotinib 0 | [2] 0.017 | dasatinib -0.109 | [3] -0.041 | [4] 0.024 | [5] -0.068 | tipifarnib 0.065 | mubritinib 0.026 | [6] 0.015 | [7] -0.049 | [8] -0.11 | [9] -0.041 | entinostat -0.019 | vorinostat -0.015 | citarinostat -0.08 | silmitasertib 0.019 | [10] 0.007 | [11] 0.108

FMC1 (UniProt Q96HJ9)
inactive: bafetinib -0.128 | [1] -0.026 | nilotinib 0.009 | [2] 0.045 | dasatinib 0.006 | [3] -0.012 | [4] -0.006 | [5] 0.009 | tipifarnib 0.035 | mubritinib 0.016 | [6] 0.01 | [7] -0.044 | [8] -0.011 | [9] 0.013 | entinostat -0.042 | vorinostat -0.054 | citarinostat 0.044 | silmitasertib 0.006 | [10] -0.012 | [11] -0.053

FNTA (UniProt P49354)
inactive: bafetinib -0.024 | [1] -0.009 | nilotinib -0.002 | [2] 0.104 | dasatinib 0.165 | [3] 0.019 | [4] 0.036 | [5] 0.091 | mubritinib 0.013 | [6] 0.009 | [7] 0.061 | [8] 0.028 | [9] 0 | entinostat -0.02 | vorinostat 0.004 | citarinostat -0.02 | silmitasertib 0.016 | [10] -0.001
active: tipifarnib 0.429 | [11] 0.696

FAM83D (UniProt Q9H4H8)
inactive: bafetinib -0.022 | [1] 0.145 | nilotinib -0.069 | [2] -0.088 | dasatinib -0.241 | [3] 0.016 | [4] -0.073 | [5] -0.027 | tipifarnib -0.107 | mubritinib 0.023 | [6] -0.031 | [7] -0.073 | [8] -0.072 | [9] 0.075 | entinostat 0.008 | vorinostat 0.066 | citarinostat 0.115 | silmitasertib 0.048 | [10] -0.058 | [11] 0.059

FLAD1 (UniProt Q8NFF5)
inactive: bafetinib -0.087 | [1] 0.007 | nilotinib -0.024 | [2] 0.058 | dasatinib -0.101 | [3] 0.1 | [4] 0.072 | [5] 0.004 | tipifarnib 0.058 | mubritinib 0.054 | [6] -0.175 | [7] -0.01 | [8] -0.081 | [9] -0.046 | entinostat -0.134 | vorinostat -0.059 | citarinostat 0.038 | silmitasertib 0.011 | [10] -0.002 | [11] 0.036
